Consider 1 substance from US7531505B2 (Affinergy, Inc., priority 2006, dated 2009).

Where only a bound is given, the exact number is not on record here.

The data set can be described thus: Fmoc solid-phase peptide synthesis; HBTU/HOBt/NMM. To be noted: whole synthesis, analytical HPLC (C-18).

For the substance “SSFYGEVGYVGASLYAGGASSRG-PEG-SSHRTNHKKNNPKKKNKTRG (SSHRTNHKKNNPKKKNKTRGSSFYGEVGYVGASLYAGGASSRG; PEG10 linker joining SEQ 3 and SEQ 19)”, the “final purity (method not given)” value is greater than 95% purity.
